Assay results taken from article PMC3240744.
No constants are given. Whether binding was seen depends on the method and setting. Some results given as binding are weak or reduced against the parent protein; the word gives no strength.

Target: T1, Arl8a, yeast two-hybrid bait (UniProt Q96BM9)
T1 sequence: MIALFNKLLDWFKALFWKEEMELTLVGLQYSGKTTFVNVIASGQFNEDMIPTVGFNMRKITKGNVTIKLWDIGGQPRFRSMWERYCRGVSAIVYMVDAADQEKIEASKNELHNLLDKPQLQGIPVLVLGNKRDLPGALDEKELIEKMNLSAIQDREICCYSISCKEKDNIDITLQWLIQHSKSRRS
Assay: two-hybrid; Arl8 baits in pDEST32 in strain PJ69-4a, SKIP preys in pDEST22 in strain PJ69-4alpha; mated, grown on selective medium at 30°C for 3 days

B1: SKIP, yeast two-hybrid prey (protein, UniProt Q8IWE5 1-1019)
chain: MEPGEVKDRILENISLSVKKLQSYFAACEDEIPAIRNHDKVLQRLCEHLDHALLYGLQDLSSGYWVLVVHFTRREAIKQIEVLQHVATNLGRSRAWLYLALNENSLESYLRLFQENLGLLHKYYVKNALVCSHDHLTLFLTLVSGLEFIRFELDLDAPYLDLAPYMPDYYKPQYLLDFEDRLPSSVHGSDSLSLNSFNSVTSTNLEWDDSAIAPSSEDYDFGDVFPAVPSVPSTDWEDGDLTDTVSGPRSTASDLTSSKASTRSPTQRQNPFNEEPAETVSSSDTTPVHTTSQEKEEAQALDPPDACTELEVIRVTKKKKIGKKKKSRSDEEASPLHPACSQKKCAKQGDGDSRNGSPSLGRDSPDTMLASPQEEGEGPSSTTESSERSEPGLLIPEMKDTSMERLGQPLSKVIDQLNGQLDPSTWCSRAEPPDQSFRTGSPGDAPERPPLCDFSEGLSAPMDFYRFTVESPSTVTSGGGHHDPAGLGQPLHVPSSPEAAGQEEEGGGGEGQTPRPLEDTTREAQELEAQLSLVREGPVSEPEPGTQEVLCQLKRDQPSPCLSSAEDSGVDEGQGSPSEMVHSSEFRVDNNHLLLLMIHVFRENEEQLFKMIRMSTGHMEGNLQLLYVLLTDCYVYLLRKGATEKPYLVEEAVSYNELDYVSVGLDQQTVKLVCTNRRKQFLLDTADVALAEFFLASLKSAMIKGCREPPYPSILTDATMEKLALAKFVAQESKCEASAVTVRFYGLVHWEDPTDESLGPTPCHCSPPEGTITKEGMLHYKAGTSYLGKEHWKTCFVVLSNGILYQYPDRTDVIPLLSVNMGGEQCGGCRRANTTDRPHAFQVILSDRPCLELSAESEAEMAEWMQHLCQAVSKGVIPQGVAPSPCIPCCLVLTDDRLFTCHEDCQTSFFRSLGTAKLGDISAVSTEPGKEYCVLEFSQDSQQLLPPWVIYLSCTSELDRLLSALNSGWKTIYQVDLPHTAIQEASNKKKFEDALSLIHSAWQRSDSLCRGRASRDPWC
With B1 the binding was “binds”.
